Source: doi:10.1101/2023.02.19.529116
These are yes or no findings as the source states them, for the method shown. For some assays here: Sequences can lack the tags named with a protein. Blank lines part the entries; values can stand above or below the binder they belong to.

Assays:
[1] = molecular target: T1, Smoothened cytotail (Smo 556-1036), ReLo (Drosophila) (UniProt P91682); test: ReLo
T1 sequence: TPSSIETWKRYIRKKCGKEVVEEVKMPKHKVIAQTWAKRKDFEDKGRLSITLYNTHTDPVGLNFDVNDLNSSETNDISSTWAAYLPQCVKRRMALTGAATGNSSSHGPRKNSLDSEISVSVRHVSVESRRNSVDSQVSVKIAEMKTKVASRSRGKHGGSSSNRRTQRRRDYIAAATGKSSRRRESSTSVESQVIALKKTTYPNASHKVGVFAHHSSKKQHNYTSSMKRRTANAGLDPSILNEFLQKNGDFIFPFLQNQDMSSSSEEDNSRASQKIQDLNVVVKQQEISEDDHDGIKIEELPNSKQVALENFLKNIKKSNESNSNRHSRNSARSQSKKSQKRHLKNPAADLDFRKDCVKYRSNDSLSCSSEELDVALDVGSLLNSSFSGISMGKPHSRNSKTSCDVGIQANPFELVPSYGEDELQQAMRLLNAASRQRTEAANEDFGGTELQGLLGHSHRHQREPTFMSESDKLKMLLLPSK

[2] = molecular target: T2, PH-EGFP-Smaug (Drosophila), Q23972; test: ReLo; details: remark: other sources report otherwise
T2 chain: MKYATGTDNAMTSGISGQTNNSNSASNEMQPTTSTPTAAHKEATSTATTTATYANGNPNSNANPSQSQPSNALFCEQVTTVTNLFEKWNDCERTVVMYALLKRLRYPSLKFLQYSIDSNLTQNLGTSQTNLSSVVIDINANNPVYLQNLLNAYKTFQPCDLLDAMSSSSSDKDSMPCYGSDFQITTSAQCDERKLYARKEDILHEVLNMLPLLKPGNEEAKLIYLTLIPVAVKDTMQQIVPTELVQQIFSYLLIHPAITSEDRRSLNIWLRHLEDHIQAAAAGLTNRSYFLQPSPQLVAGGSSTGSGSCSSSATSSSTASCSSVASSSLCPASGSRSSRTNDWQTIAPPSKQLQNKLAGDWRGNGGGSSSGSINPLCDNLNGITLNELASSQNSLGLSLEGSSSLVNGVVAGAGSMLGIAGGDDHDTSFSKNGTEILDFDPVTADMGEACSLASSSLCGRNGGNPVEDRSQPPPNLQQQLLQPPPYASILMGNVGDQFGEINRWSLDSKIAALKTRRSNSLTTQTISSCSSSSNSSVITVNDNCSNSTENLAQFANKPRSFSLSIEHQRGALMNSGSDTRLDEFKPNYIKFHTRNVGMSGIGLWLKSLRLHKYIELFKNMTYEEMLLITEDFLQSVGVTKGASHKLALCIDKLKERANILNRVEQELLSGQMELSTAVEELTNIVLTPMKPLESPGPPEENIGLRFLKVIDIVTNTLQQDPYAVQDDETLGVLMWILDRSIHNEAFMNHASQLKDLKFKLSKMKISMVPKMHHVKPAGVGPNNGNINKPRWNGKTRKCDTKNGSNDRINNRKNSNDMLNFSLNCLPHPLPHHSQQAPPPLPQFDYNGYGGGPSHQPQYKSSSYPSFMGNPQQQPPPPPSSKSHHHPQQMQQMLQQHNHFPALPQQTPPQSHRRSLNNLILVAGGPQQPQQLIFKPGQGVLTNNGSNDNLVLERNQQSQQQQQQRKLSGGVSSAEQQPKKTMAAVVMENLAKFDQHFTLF

B1: Smaug DR1 (aa 282-595), ReLo (domain or fragment, UniProt Q23972 282-595)
chain: AGLTNRSYFLQPSPQLVAGGSSTGSGSCSSSATSSSTASCSSVASSSLCPASGSRSSRTNDWQTIAPPSKQLQNKLAGDWRGNGGGSSSGSINPLCDNLNGITLNELASSQNSLGLSLEGSSSLVNGVVAGAGSMLGIAGGDDHDTSFSKNGTEILDFDPVTADMGEACSLASSSLCGRNGGNPVEDRSQPPPNLQQQLLQPPPYASILMGNVGDQFGEINRWSLDSKIAALKTRRSNSLTTQTISSCSSSSNSSVITVNDNCSNSTENLAQFANKPRSFSLSIEHQRGALMNSGSDTRLDEFKPNYIKFHTRN
- binding [1]: no binding

B3: Belle, Q9VHP0 1-798 (protein)
chain: MSNAINQNGTGLEQQVAGLDLNGGSADYSGPITSKTSTNSVTGGVYVPPHLRGGGGNNNAADAESQGQGQGQGQGFDSRSGNPRQETRDPQQSRGGGGEYRRGGGGGGRGFNRQSGDYGYGSGGGGRRGGGGRFEDNYNGGEFDSRRGGDWNRSGGGGGGGRGFGRGPSYRGGGGGSGSNLNEQTAEDGQAQQQQQPRNDRWQEPERPAGFDGSEGGQSAGGNRSYNNRGERGGGGYNSRWKEGGGSNVDYTKLGARDERLEVELFGVGNTGINFDKYEDIPVEATGQNVPPNITSFDDVQLTEIIRNNVALARYDKPTPVQKHAIPIIINGRDLMACAQTGSGKTAAFLVPILNQMYELGHVPPPQSTRQYSRRKQYPLGLVLAPTRELATQIFEEAKKFAYRSRMRPAVLYGGNNTSEQMRELDRGCHLIVATPGRLEDMITRGKVGLENIRFLVLDEADRMLDMGFEPQIRRIVEQLNMPPTGQRQTLMFSATFPKQIQELASDFLSNYIFLAVGRVGSTSENITQTILWVYEPDKRSYLLDLLSSIRDGPEYTKDSLTLIFVETKKGADSLEEFLYQCNHPVTSIHGDRTQKEREEALRCFRSGDCPILVATAVAARGLDIPHVKHVINFDLPSDVEEYVHRIGRTGRMGNLGVATSFFNEKNRNICSDLLELLIETKQEIPSFMEDMSSDRGHGGAKRAGRGGGGRYGGGFGSRDYRQSSGGGGGGRSGPPPRSGGSGSGGGGGSYRSNGNSYGGNSGGGGYYGGGAGGGSYGGSYGGGSASHSSNAPDWWAQ
- binding [2]: no binding

B6: Me31B, P23128 1-459 (protein)
chain: MMTEKLNSGHTNLTSKGIINDLQIAGNTSDDMGWKSKLKLPPKDNRFKTTDVTDTRGNEFEEFCLKRELLMGIFEKGWERPSPIQEAAIPIALSGKDVLARAKNGTGKTGAYCIPVLEQIDPTKDYIQALVMVPTRELALQTSQICIELAKHLDIRVMVTTGGTILKDDILRIYQKVQLIIATPGRILDLMDKKVADMSHCRILVLDEADKLLSLDFQGMLDHVILKLPKDPQILLFSATFPLTVKNFMEKHLREPYEINLMEELTLKGVTQYYAFVQERQKVHCLNTLFSKLQINQSIIFCNSTQRVELLAKKITELGYCCYYIHAKMAQAHRNRVFHDFRQGLCRNLVCSDLFTRGIDVQAVNVVINFDFPRMAETYLHRIGRSGRFGHLGIAINLITYEDRFDLHRIEKELGTEIKPIPKVIDPALYVANVGASVGDTCNNSDLNNSANEEGNVSK
- binding [2]: no binding

B7: Ago3, Q7PLK0 1-867 (protein)
chain: MSGRGNLLSLFNKNAGNMGKSISSKDHEIDSGLDFNNSESSGERLLSSHNIETDLITTLQHVNISVGRGRARLIDTLKTDDHTSNQFITSESKENITKKTKGPESEAIASENGLFFPDLIYGSKGSSVNIYCNYLKLTTDESKGVFNYEVRFFPPIDSVHLRIKYLNDHKDKLGGTKTFDGNTLYLPILLPNKMTVFISKAEDVELQIRILYKKKEEMRNCTQLYNILFDRVMKVLNYVKFDRKQFDPSRPKIIPLAKLEVWPGYVTAVDEYKGGLMLCCDVSHRILCQKTVLEMLVDLYQQNVEHYQESARKMLVGNIVLTRYNNRTYKINDICFDQNPTCQFEIKTGCTSYVEYYKQYHNINIKDVNQPLIYSIKKSRGIPAERENLQFCLIPELCYLTGLRDEVRSDNKLMREIATFTRVSPNQRQMALNKFYENVSNTPAAQEILNSWGLSLTNNSNKISGRQMDIEQIYFSKISVSAGRSAEFSKHAVTNEMLKVVHLSKWIIIHLRNYRQAATSLLDNMKQACESLGMNISNPTMISLDHDRIDAYIQALRRNITMNTQMVVCICHNRRDDRYAAIKKICCSEIPIPSQVINAKTLQNDLKIRSVVQKIVLQMNCKLGGSLWTVKIPFKNVMICGIDSYHDPSNRGNSVAAFVASINSSYSQWYSKAVVQTKREEIVNGLSASFEIALKMYRKRNGKLPTNIIIYRDGIGDGQLYTCLNYEIPQFEMVCGNRIKISYIVVQKRINTRIFSGSGIHLENPLPGTVVDQHITKSNMYDFFLVSQLVRQGTVTPTHYVVLRDDCNYGPDIIQKLSYKLCFLYYNWAGTVRIPACCMYAHKLAYLIGQSIQRDVAEALSEKLFYL
- binding [2]: no binding

B8: Aubergine, O76922 1-866 (protein)
chain: MNLPPNPVIARGRGRGRKPNNVEANRGFAPSLGQKSDPSHSEGNQASGGNGGGGDAQVGPSIEKSSLSAVQMHKSEGDPRGSVRGRRLITDLVYSRPPGMTSKKGVVGTHITVQANYFKVLKRPNWTIYQYRVDFTPDVEATRLRRSFLYEHKGILGGYIFDGTNMFCINQFKAVQDSPYVLELVTKSRAGENIEIKIKAVGSVQSTDAEQFQVLNLILRRAMEGLDLKLVSRYYYDPQAKINLENFRMQLWPGYQTSIRQHENDILLCSEICHKVMRTETLYNILSDAIRDSDDYQSTFKRAVMGMVILTDYNNKTYRIDDVDFQSTPLCKFKTNDGEISYVDYYKKRYNIIIRDLKQPLVMSRPTDKNIRGGNDQAIMIIPELARATGMTDAMRADFRTLRAMSEHTRLNPDRRIERLRMFNKRLKSCKQSVETLKSWNIELDSALVEIPARVLPPEKILFGNQKIFVCDARADWTNEFRTCSMFKNVHINRWYVITPSRNLRETQEFVQMCIRTASSMKMNICNPIYEEIPDDRNGTYSQAIDNAAANDPQIVMVVMRSPNEEKYSCIKKRTCVDRPVPSQVVTLKVIAPRQQKPTGLMSIATKVVIQMNAKLMGAPWQVVIPLHGLMTVGFDVCHSPKNKNKSYGAFVATMDQKESFRYFSTVNEHIKGQELSEQMSVNMACALRSYQEQHRSLPERILFFRDGVGDGQLYQVVNSEVNTLKDRLDEIYKSAGKQEGCRMTFIIVSKRINSRYFTGHRNPVPGTVVDDVITLPERYDFFLVSQAVRIGTVSPTSYNVISDNMGLNADKLQMLSYKMTHMYYNYSGTIRVPAVCHYAHKLAFLVAESINRAPSAGLQNQLYFL
- binding [2]: no binding

Next, values leading:

- binding [2]: no binding
B2: Tral, Q9VTZ0 1-652 (protein)
chain: MSGGLPELGSKISLISKADIRYEGRLYTVDPQECTIALSSVRSFGTEDRDTQFQIAPQSQIYDYILFRGSDIKDIRVVNNHTLPHHNDPAIMQAQLQNGPPQMPQHFPMPSGMSGPPQQQQVPSQQPPQMPSGGGSGGAGGAGAPGGGGPGYGNGNPFGNLGGPNLANMVGNAGGSLAPGSGAPGSGPFMHIGGNQQQPKPQQQKQPNMLAGASRSTTPISLIVSPTAELTQQQQLHQQQNAGQGGNGRDAGHKRQNHQQQQNQQHQQRGGPSHNNMQQQQQRGGGSGTDFYNQQRDRRDSGRQMDNNYSNNYNNNNNNQRNRGGGNGMQQQQRGGNGGSGGGGGNGGGNNPAWNMHRGNQNSNNMMNMRNRGMGSRGPMRPNQGYRPQSANNQNKPRNKIKFEGDFDFEQANNKFEELRSQLAKLKVAEDGAPKPATNATAATATATNEQVGEKVEGVHTLNGETDKKDDSGNETGAGEHEPEEDDVAVCYDKTKSFFDNISCEAAQDRSKNKKNDWRQERKLNTETFGVSSTRRGSYRGRNQYYNNNGNGGINSGYGGAPGYNRNNYRMGGGGGNFRNRSNNRNNGGGRGGNGMPNITNGNTAAALKAANNAAGHGSNATDSSAPNATTATTKSTSLLPEQTQQVAAVSQ

- binding [1]: no binding
B4: Smaug SAM-PHAT (aa 596-765), ReLo (domain or fragment, UniProt Q23972 596-765)
chain: VGMSGIGLWLKSLRLHKYIELFKNMTYEEMLLITEDFLQSVGVTKGASHKLALCIDKLKERANILNRVEQELLSGQMELSTAVEELTNIVLTPMKPLESPGPPEENIGLRFLKVIDIVTNTLQQDPYAVQDDETLGVLMWILDRSIHNEAFMNHASQLKDLKFKLSKMKI

- binding [1]: no binding
B5: Smaug DR2 (aa 766-999), ReLo (domain or fragment, UniProt Q23972 766-999)
chain: SMVPKMHHVKPAGVGPNNGNINKPRWNGKTRKCDTKNGSNDRINNRKNSNDMLNFSLNCLPHPLPHHSQQAPPPLPQFDYNGYGGGPSHQPQYKSSSYPSFMGNPQQQPPPPPSSKSHHHPQQMQQMLQQHNHFPALPQQTPPQSHRRSLNNLILVAGGPQQPQQLIFKPGQGVLTNNGSNDNLVLERNQQSQQQQQQRKLSGGVSSAEQQPKKTMAAVVMENLAKFDQHFTLF
